From paper doi:10.1101/2025.07.09.663887
No constants are given. Whether binding was seen depends on the method and setting. Binding seen in cells or lysates may run through a third protein. Some binding calls cover weakened binding; strength is not graded here.

The chains behind the UniProt entries cited, without tags or fusion partners.
UniProt Q00987: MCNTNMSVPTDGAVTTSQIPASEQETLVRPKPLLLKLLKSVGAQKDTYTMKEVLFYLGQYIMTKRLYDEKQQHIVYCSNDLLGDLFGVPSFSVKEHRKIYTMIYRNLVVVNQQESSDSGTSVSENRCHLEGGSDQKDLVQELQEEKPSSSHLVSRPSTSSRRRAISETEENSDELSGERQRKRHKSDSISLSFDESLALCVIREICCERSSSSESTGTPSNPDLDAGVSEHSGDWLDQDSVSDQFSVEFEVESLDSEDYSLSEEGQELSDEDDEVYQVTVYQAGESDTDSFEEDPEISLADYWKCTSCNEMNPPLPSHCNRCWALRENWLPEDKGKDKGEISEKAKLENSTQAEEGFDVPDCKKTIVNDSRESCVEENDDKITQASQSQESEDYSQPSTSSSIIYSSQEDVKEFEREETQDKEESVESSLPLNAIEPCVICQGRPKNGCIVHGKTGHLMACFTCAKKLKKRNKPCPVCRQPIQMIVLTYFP
UniProt Q9NZJ0: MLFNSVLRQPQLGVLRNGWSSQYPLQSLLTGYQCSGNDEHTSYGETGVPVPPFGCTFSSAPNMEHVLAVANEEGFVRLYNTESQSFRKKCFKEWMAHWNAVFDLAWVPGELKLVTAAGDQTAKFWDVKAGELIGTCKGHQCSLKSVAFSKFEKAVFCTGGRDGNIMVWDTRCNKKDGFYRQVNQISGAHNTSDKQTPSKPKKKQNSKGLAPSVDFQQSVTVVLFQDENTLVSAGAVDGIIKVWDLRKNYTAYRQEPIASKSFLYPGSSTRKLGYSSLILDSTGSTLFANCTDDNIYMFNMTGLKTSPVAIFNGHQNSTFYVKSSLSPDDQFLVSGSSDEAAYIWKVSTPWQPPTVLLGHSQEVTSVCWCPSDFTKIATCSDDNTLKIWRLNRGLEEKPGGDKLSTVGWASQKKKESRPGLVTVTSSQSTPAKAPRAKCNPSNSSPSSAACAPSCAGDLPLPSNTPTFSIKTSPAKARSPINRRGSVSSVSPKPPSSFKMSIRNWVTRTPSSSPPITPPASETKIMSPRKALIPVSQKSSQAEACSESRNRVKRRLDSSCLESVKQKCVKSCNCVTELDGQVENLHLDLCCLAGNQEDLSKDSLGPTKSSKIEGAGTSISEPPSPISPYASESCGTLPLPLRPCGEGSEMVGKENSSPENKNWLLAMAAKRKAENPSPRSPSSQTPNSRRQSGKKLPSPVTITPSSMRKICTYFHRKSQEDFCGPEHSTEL

Key:
Assay in all cases: co-IP
[1] = target: Mdm2 (endogenous) (human (endogenous in U2OS)) (UniProt Q00987)
myc-Mdm2 = myc-Mdm2 (UniProt Q00987)
Flag-Cdt2 = Flag-Cdt2 (UniProt Q9NZJ0)

With “Cdt2 (endogenous) (from UniProt Q9NZJ0 1-730)” the binding [1] was “binds”.

Flag-Cdt2 (from UniProt Q9NZJ0 1-730) was tested, and the binding (myc-Mdm2) was “binds”.

For myc-Mdm2 (from UniProt Q00987 1-491), the binding (Flag-Cdt2) was “binds”.
